# Reference: paper PMC11990775
# The chains behind the UniProt entries cited, without tags or fusion partners. Where a name states a change or a piece, a line headed by the entry shows the natural chain unless it says otherwise.
# UniProt Q9HC16: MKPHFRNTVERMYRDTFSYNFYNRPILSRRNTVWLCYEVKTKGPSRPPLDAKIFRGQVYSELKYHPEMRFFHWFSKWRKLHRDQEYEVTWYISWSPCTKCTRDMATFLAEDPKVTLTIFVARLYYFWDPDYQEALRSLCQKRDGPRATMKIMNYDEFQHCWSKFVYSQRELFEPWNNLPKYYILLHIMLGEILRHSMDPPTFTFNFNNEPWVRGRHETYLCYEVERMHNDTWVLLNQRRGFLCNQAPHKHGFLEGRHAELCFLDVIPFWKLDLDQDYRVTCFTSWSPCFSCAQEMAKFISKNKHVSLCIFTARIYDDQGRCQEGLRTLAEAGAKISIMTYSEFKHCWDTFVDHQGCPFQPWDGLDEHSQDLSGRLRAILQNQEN
# UniProt Q99J72: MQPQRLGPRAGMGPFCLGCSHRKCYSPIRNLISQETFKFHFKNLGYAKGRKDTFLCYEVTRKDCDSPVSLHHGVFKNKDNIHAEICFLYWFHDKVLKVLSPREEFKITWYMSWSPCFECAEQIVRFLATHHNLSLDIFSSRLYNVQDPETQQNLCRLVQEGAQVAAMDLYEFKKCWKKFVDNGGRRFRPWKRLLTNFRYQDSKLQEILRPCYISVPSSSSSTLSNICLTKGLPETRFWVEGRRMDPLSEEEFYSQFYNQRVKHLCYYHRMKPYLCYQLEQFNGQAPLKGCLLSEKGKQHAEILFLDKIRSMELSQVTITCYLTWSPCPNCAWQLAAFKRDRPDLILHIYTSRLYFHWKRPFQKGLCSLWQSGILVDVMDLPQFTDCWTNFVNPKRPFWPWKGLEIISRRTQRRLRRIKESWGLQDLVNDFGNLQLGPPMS
# UniProt P67809: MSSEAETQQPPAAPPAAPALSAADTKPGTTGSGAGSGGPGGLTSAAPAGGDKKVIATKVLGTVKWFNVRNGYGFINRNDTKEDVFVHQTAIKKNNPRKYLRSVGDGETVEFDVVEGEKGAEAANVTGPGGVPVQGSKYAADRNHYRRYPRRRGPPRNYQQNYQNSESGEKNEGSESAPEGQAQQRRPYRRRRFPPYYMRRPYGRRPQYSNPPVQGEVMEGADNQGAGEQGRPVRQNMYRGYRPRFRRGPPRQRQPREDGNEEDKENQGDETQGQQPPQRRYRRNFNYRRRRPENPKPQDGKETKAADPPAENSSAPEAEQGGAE
# UniProt O43143: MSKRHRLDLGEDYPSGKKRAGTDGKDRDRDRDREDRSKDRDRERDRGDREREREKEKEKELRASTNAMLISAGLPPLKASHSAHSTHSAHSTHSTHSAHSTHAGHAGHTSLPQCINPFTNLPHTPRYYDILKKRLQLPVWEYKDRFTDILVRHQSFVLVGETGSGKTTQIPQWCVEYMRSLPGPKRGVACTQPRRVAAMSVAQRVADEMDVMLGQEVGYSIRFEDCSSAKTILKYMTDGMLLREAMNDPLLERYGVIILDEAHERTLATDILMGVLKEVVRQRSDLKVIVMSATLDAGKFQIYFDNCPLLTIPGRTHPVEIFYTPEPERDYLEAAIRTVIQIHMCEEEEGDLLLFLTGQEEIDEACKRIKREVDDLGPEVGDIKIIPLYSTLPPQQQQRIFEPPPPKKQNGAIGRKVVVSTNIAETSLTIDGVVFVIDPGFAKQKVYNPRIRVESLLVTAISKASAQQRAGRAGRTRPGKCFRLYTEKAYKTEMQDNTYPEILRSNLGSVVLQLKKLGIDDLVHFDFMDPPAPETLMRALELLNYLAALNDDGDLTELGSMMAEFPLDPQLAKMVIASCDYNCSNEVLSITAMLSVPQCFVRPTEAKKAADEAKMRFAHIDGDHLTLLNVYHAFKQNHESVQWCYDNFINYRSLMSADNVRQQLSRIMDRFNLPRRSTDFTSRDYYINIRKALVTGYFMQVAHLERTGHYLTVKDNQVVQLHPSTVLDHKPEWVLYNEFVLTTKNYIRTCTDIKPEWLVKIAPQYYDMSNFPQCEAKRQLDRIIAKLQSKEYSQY
# Experiments:
# [1] = target: FLAG-tagged human APOBEC3G (human) (UniProt Q9HC16); test: affinity purification with mass spectrometry; HEK293T cells transfected with FLAG-tagged bait; lysate with anti-FLAG antibody and protein A/G Plus-agarose; SDS gel, Coomassie-stained bands cut out and identified by LC-MS
# [2] = target: FLAG-tagged full-length mouse APOBEC3 (containing exon 5) (mouse) (UniProt Q99J72); test: as above
Substance,binding [1],binding [2]
"hnRNPK, endogenous in 293T cells (from UniProt P61978 1-463)",binds,binds
"Y-box binding protein 1 (YB1), endogenous in 293T cells (from UniProt P67809 1-324)",binds,binds
"DEAH-box helicase 15 (DHX15), endogenous in 293T cells (from UniProt O43143 1-795)",–,binds

# These are yes or no findings as the source states them, for the method shown. Binding seen in cells or lysates may run through a third protein. Here binding means that the protein was enriched with, or labelled near, the bait; the list need not be complete.
